Results: US11220671B2, “Methods for the maturation of cardiomyocytes on amniotic fluid cell-derived ECM, cellular constructs, and uses for cardiotoxicity and proarrhythmic screening of drug compounds” (STEMBIOSYS, INC., priority 2019, dated 2022)

B1: Myelin expression factor 2 (protein, UniProt Q9P2K5 1-600, looked up)
Myelin expression factor 2: MADANKAEVPGATGGDSPHLQPAEPPGEPRREPHPAEAEKQQPQHSSSSNGVKMENDESAKEEKSDLKEKSTGSKKANRFHPYSKDKNSGAGEKKGPNRNRVFISNIPYDMKWQAIKDLMREKVGEVTYVELFKDAEGKSRGCGVVEFKDEEFVKKALETMNKYDLSGRPLNIKEDPDGENARRALQRTGGSFPGGHVPDMGSGLMNLPPSILNNPNIPPEVISNLQAGRLGSTIFVANLDFKVGWKKLKEVFSIAGTVKRADIKEDKDGKSRGMGTVTFEQAIEAVQAISMFNGQFLFDRPMHVKMDDKSVPHEEYRSHDGKTPQLPRGLGGIGMGLGPGGQPISASQLNIGGVMGNLGPGGMGMDGPGFGGMNRIGGGIGFGGLEAMNSMGGFGGVGRMGELYRGAMTSSMERDFGRGDIGINQGFGDSFGRLGSAMIGGFAGRIGSSNMGPVGSGISGGMGSMNSVTGGMGMGLDRMSSSFDRMGPGIGAILERSIDMDRGFLSGPMGSGMRERIGSKGNQIFVRNLPFDLTWQKLKEKFSQCGHVMFAEIKMENGKSKGCGTVRFDSPESAEKACRIMNGIKISGREIDVRLDRNA
B2: Myosin light chain 6B (protein, UniProt P14649 1-208, looked up)
Myosin light chain 6B: MPPKKDVPVKKPAGPSISKPAAKPAAAGAPPAKTKAEPAVPQAPQKTQEPPVDLSKVVIEFNKDQLEEFKEAFELFDRVGDGKILYSQCGDVMRALGQNPTNAEVLKVLGNPKSDELKSRRVDFETFLPMLQAVAKNRGQGTYEDYLEGFRVFDKEGNGKVMGAELRHVLTTLGEKMTEEEVETVLAGHEDSNGCINYEAFLKHILSV
B3: N-acylneuraminate cytidylyltransferase (protein, UniProt Q8NFW8 1-434, looked up)
N-acylneuraminate …: MDSVEKGAATSVSNPRGRPSRGRPPKLQRNSRGGQGRGVEKPPHLAALILARGGSKGIPLKNIKHLAGVPLIGWVLRAALDSGAFQSVWVSTDHDEIENVAKQFGAQVHRRSSEVSKDSSTSLDAIIEFLNYHNEVDIVGNIQATSPCLHPTDLQKVAEMIREEGYDSVFSVVRRHQFRWSEIQKGVREVTEPLNLNPAKRPRRQDWDGELYENGSFYFAKRHLIEMGYLQGGKMAYYEMRAEHSVDIDVDIDWPIAEQRVLRYGYFGKEKLKEIKLLVCNIDGCLTNGHIYVSGDQKEIISYDVKDAIGISLLKKSGIEVRLISERACSKQTLSSLKLDCKMEVSVSDKLAVVDEWRKEMGLCWKEVAYLGNEVSDEECLKRVGLSGAPADACSTAQKAVGYICKCNGGRGAIREFAEHICLLMEKVNNSCQK

Test: Composition of amniotic fluid cell-derived ECM by mass spectrometry (total spectra count)
Details: amniotic fluid cell-derived ECM Matrix A, mass spectrometry; label = protein component

Molecule	Total Spectra Count Matrix A
B1	0
B2	0
B3	0

Same assay, conditions: amniotic fluid cell-derived ECM Matrix B, mass spectrometry; label = protein component

Molecule	Total Spectra Count Matrix B
B1	2
B2	0
B3	6

Same assay, conditions: amniotic fluid cell-derived ECM Matrix C, mass spectrometry; label = protein component

Molecule	Total Spectra Count Matrix C
B1	0
B2	6
B3	0

Same assay, conditions: amniotic fluid cell-derived ECM Matrix D, mass spectrometry; label = protein component

Molecule	Total Spectra Count Matrix D
B1	0
B2	0
B3	0
